The supplement of paper PMC12819154, “High-throughput peptide-centric local stability assay extends protein–ligand identification to membrane proteins, tissues and bacteria” (Nature Structural & Molecular Biology, 2025)
The list shows a part of the results. Most entries show no effect beyond the scatter of the controls.

Chains of the proteins cited; added tags and fusions are not shown. Lines headed by an entry give the natural chain unless they say otherwise; changes in a name come on top.
UniProt Q9UPT6: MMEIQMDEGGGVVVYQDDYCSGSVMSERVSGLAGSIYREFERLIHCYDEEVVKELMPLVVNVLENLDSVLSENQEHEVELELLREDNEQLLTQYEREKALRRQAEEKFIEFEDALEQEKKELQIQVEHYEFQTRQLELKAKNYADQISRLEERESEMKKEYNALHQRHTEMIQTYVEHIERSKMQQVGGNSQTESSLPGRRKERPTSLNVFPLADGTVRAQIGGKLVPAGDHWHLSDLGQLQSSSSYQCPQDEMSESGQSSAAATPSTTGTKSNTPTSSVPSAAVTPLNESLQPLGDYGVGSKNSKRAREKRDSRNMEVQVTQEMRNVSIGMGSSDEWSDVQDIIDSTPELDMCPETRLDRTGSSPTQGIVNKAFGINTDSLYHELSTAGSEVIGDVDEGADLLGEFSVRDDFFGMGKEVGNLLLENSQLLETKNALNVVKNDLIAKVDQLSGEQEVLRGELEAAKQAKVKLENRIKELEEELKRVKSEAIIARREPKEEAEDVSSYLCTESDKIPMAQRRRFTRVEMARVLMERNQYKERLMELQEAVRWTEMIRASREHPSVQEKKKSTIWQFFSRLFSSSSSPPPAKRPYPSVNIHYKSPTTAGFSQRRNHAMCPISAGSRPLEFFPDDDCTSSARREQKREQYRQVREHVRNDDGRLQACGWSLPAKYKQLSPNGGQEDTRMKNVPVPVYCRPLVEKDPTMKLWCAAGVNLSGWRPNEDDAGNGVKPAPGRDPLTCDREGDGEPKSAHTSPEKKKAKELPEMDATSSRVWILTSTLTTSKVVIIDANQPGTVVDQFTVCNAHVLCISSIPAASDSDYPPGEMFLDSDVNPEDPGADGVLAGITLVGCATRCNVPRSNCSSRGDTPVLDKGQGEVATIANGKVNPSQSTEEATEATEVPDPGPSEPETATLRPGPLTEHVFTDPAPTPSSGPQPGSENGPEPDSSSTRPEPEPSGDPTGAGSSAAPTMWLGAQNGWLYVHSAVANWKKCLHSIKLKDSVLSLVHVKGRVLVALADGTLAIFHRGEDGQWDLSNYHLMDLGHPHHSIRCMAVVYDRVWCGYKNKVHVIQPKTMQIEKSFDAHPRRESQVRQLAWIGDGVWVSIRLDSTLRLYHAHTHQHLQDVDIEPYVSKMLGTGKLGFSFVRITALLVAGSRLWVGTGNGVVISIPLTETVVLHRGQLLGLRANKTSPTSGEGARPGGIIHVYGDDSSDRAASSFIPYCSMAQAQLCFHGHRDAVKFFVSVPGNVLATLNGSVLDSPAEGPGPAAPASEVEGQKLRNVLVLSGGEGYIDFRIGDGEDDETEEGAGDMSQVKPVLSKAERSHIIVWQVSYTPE
UniProt Q9UQ84: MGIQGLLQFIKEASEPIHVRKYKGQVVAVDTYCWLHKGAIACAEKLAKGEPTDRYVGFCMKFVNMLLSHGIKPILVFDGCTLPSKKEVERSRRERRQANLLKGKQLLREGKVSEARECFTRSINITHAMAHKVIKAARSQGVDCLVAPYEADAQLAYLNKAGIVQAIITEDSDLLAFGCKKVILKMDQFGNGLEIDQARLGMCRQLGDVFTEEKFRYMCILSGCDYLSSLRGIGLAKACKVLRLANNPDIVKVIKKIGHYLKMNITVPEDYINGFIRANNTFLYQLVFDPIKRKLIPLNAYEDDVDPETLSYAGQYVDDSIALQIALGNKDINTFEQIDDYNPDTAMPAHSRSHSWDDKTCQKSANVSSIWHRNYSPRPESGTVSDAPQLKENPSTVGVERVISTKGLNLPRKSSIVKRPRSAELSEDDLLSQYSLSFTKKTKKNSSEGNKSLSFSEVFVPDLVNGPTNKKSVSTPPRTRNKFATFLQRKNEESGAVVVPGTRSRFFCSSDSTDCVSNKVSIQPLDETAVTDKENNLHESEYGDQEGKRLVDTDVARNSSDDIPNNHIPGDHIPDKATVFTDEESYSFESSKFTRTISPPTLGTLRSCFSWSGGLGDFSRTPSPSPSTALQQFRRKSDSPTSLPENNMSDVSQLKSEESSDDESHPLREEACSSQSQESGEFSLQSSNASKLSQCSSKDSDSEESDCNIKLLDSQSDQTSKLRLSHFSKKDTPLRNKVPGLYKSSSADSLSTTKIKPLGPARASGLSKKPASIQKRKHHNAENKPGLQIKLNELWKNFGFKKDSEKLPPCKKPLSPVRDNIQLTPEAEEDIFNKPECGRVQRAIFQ
UniProt Q9ULK4: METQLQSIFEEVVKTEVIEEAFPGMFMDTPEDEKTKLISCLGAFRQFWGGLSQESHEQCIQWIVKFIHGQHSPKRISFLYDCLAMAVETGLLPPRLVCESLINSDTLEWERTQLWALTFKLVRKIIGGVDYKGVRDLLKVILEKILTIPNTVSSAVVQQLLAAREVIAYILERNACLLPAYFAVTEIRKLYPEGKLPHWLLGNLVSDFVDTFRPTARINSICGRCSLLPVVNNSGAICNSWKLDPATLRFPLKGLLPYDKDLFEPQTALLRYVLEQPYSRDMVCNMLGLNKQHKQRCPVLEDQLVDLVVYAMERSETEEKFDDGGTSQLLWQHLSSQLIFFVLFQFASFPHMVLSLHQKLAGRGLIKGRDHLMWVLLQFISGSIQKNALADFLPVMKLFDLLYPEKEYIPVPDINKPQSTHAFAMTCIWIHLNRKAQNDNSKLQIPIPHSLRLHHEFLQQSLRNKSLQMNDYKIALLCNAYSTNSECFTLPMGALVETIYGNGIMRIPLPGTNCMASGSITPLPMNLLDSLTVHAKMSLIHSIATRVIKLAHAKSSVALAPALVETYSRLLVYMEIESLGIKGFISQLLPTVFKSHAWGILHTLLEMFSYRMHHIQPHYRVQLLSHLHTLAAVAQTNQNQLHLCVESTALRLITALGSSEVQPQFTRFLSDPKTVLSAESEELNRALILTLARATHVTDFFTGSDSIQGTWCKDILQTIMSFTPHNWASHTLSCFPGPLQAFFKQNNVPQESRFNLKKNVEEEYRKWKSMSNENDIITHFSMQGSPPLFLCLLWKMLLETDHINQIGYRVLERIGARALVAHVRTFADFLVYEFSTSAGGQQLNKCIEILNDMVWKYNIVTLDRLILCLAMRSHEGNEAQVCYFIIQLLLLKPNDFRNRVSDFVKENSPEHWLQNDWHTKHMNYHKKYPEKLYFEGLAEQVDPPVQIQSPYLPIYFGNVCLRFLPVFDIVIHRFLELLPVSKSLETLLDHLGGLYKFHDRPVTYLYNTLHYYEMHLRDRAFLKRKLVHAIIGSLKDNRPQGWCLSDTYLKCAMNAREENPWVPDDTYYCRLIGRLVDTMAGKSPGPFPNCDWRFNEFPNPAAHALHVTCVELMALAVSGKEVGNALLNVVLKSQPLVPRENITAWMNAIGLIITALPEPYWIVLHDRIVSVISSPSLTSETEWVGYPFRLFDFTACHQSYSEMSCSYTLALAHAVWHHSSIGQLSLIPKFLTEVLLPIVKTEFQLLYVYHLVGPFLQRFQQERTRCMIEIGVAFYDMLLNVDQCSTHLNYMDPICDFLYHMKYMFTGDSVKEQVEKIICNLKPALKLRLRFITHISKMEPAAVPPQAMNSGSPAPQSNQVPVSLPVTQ
UniProt Q9Y244: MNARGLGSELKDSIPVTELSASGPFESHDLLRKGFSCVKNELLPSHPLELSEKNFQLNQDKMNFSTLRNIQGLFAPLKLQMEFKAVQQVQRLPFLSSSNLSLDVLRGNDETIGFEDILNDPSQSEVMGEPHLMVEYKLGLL
UniProt Q9UI47: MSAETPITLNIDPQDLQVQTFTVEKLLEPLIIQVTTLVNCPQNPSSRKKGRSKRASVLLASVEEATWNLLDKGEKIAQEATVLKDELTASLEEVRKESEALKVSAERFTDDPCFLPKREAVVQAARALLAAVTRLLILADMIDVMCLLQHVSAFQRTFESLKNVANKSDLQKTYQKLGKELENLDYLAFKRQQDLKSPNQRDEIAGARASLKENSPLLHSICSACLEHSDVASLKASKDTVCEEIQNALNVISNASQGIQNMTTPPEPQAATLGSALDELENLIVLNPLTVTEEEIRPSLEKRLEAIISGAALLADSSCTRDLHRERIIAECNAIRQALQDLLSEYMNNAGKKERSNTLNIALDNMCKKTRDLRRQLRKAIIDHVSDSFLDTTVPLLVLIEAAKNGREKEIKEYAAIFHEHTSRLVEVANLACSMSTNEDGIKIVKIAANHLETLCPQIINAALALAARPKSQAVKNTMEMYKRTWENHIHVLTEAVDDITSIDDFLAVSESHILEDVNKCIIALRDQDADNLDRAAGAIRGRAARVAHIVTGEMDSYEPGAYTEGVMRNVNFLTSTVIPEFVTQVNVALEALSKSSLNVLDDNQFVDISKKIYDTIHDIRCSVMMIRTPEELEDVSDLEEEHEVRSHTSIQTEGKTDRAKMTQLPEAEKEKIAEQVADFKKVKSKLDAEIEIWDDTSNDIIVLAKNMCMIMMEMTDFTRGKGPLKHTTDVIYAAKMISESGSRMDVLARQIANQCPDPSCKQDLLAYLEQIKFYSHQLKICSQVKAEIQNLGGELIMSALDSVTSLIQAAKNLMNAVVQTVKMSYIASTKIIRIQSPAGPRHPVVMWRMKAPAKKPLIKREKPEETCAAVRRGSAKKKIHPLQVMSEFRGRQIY
UniProt Q9UJ41, whole entry: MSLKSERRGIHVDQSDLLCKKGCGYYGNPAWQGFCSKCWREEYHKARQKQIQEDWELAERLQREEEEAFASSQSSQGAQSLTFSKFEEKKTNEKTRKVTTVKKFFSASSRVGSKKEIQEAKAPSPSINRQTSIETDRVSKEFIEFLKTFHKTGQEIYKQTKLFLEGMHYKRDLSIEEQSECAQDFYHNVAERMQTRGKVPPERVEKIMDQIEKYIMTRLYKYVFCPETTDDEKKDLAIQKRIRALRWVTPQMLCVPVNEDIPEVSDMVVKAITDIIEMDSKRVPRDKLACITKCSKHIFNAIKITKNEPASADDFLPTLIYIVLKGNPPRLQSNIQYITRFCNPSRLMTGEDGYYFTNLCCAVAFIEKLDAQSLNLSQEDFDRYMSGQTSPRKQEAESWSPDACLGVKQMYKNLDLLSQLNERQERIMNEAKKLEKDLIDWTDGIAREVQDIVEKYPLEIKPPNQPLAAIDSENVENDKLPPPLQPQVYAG
UniProt Q9UJN7: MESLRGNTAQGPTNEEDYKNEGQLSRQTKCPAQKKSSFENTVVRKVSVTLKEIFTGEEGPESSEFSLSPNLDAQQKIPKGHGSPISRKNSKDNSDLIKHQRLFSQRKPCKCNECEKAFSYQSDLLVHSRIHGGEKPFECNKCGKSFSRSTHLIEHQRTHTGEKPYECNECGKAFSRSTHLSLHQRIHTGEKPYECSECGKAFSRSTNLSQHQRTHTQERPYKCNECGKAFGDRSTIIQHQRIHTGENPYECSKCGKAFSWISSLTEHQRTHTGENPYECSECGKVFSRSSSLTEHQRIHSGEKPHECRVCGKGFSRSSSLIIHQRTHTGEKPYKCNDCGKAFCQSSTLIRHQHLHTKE
UniProt Q9Y237, whole entry: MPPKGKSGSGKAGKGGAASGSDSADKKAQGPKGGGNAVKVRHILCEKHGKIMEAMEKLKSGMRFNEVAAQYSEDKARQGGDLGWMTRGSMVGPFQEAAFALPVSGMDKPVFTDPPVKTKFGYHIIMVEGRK
UniProt Q9UPY6: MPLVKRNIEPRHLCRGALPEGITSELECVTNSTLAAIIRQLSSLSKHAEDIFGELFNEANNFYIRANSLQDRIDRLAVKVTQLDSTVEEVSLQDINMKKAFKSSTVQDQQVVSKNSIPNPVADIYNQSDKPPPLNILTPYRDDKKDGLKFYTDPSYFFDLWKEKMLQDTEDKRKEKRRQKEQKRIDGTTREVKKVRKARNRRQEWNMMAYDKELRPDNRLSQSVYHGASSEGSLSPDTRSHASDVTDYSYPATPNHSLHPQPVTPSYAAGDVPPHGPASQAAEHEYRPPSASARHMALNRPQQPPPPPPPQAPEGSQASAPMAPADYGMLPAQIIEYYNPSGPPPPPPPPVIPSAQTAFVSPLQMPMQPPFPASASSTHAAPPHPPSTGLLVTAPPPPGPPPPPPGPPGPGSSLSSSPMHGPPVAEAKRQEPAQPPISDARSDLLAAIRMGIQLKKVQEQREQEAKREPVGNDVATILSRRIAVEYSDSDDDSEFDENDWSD

compound: Cc1nc(Nc2ncc(C(=O)Nc3c(C)cccc3Cl)s2)cc(N2CCN(CCO)CC2)n1 [dasatinib]; assay: log2 fold change of tryptic peptide abundance, ligand vs vehicle (limited proteolysis) (log2 ratio); higher = more trypsin-susceptible (destabilized); details: ligand concentration: 5 uM; sample: K562 cleared lysate

Target	log2 fold change
MAPK8IP3 (peptide sequence: TGSSPTQGIVNK, peptide start residue: 362) (UniProt Q9UPT6)	0.437
EXO1 (peptide sequence: FATFLQR, peptide start residue: 483) (UniProt Q9UQ84)	-0.327
MED23 (peptide sequence: ENSPEHWLQNDWHTK, peptide start residue: 906) (UniProt Q9ULK4)	-0.29
POMP (peptide sequence: NIQGLFAPLK, peptide start residue: 69) (UniProt Q9Y244)	-0.25
UniProt Q9UI47 (peptide sequence: NLMNAVVQTVK, peptide start residue: 824)	-0.0486
UniProt Q9UPU3 (peptide sequence: GIPAPAK, peptide start residue: 118)	-0.16
RABGEF1 (peptide sequence: NLDLLSQLNER, peptide start residue: 413) (UniProt Q9UJ41)	0.0582
UniProt Q9ULE0 (peptide sequence: HEQAAEKMLKK, peptide start residue: 1038)	-0.463
ZNF391 (peptide sequence: IHGGEKPFECNK, peptide start residue: 130) (UniProt Q9UJN7)	0.77
PIN4 (peptide sequence: TKFGYHIIMVEGR, peptide start residue: 118) (UniProt Q9Y237)	-0.107
UniProt Q9UPY6 (peptide sequence: MLQDTEDK, peptide start residue: 165)	-0.331

For convenience, part of the list above:
Target	log2 fold change
POMP (peptide sequence: NIQGLFAPLK, peptide start residue: 69) (UniProt Q9Y244)	-0.25
UniProt Q9UI47 (peptide sequence: NLMNAVVQTVK, peptide start residue: 824)	-0.0486
